Reference: patent publication US10016418B2, “Compounds useful as modulators of TRPM8” (Senomyx, Inc., priority 2010, dated 2018)

Assay: Cool Line Scale Test (sensory panel, 15 point line scale, WS-3 reference)
Assay type: in vivo, human
Description: All samples made with Low Sodium Buffer (LSB) pH ˜7.1 and contain 0.1% ethanol.
Compounds are rated on a 15 point line scale where 45 μM WS-3 (N-Ethyl-p-menthane-3-carboxamide) is ranked as a 5 in cool intensity. In most cases our compounds are tested to determine at what concentration the cooling intensity is equivalent to 45 μM WS-3. In each test, the panelist is presented with a 0 μM control sample, a 45 μM WS-3 control sample and the experimental compound sample and asked to rate the cooling intensity of each sample. Panelists are also asked to rate bitterness. In the table below there was no significant bitterness detected unless otherwise noted. Also, in the table below, n represents the number of tests completed for a given experiment (#panelists x #repetitions).
All samples were prepared with Low Sodium Buffer (LSB) pH ˜7.1 and contain 0.1% ethanol

Cc1c[nH]nc1N(Cc1cccs1)C(=O)COc1ccc2c(c1)CCC2 [Example B1, 2-(2,3-dihydro-1H-inden-5-yloxy)-N-(4-methyl-1H-pyrazol-3-yl)-N-(thiophen-2-ylmethyl)acetamide]
bitter offtaste (compound at 5 μM): (p < 0.05). There were no significant bitter offtastes in any of the

Cc1ccc(OCC(=O)N(Cc2cccs2)c2ccn[nH]2)cc1 [Example F1, N-(1H-pyrazol-5-yl)-N-(thiophen-2-ylmethyl)-2-(p-tolyloxy)acetamide]
Average Bitterness (Table 5, 3 μM in LSB, n = 28): 0.4
bitter offtaste (compound at 3 μM): no significant bitter offtastes

CCNC(=O)C1CC(C)CCC1C(C)C (centres unmarked) [WS-3, N-Ethyl-p-menthane-3-carboxamide, reference compound]
Average Bitterness (Table 3, 45 μM WS-3 control, n = 30): 0.3
Average Bitterness (Table 5, 45 μM WS-3 control, n = 28): 0.3
